PubChem BioAssay AID588765 (NMMLSC, 2011)
Screen size: about 1,100 compounds; fewer than 10 were called active.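 How the source made its calls: active means percent response below a set limit in fluorescence channel 1 and below 50% in channel 8; inactive means the rest.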 The entries are a selection whose mix differs from that of the whole data set.

Experiment: fluorescent artefacts in FAP flow readout – cell-based, FAP fluorogen, flow cytometry, cherry pick 1, artefact control for beta2AR agonist internalization project, confirmation (AID 588765);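 further: low percent response here flags compound autofluorescence meaning a false positive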
Details: Am2.2 cells, fluorescence counterscreen, at 10 µM, stronger effect = lower value
In the case of `CCC(=O)c1ccc(OCC(=O)N2CCN(CC(=O)Nc3ccc(C)cc3)CC2)cc1`, the percent response FL1 is reported as inactive: 1.48%.
